Reference: PMC10622183
No constants are given. Whether binding was seen depends on the method and setting. In cells and extracts the contact can be indirect. Some results given as binding are weak or reduced against the parent protein; the word gives no strength.

By UniProt entry, the sequences of proteins in these tests, tags left out. Residues count along the entry.
UniProt Q8TDQ0, residues 22-301: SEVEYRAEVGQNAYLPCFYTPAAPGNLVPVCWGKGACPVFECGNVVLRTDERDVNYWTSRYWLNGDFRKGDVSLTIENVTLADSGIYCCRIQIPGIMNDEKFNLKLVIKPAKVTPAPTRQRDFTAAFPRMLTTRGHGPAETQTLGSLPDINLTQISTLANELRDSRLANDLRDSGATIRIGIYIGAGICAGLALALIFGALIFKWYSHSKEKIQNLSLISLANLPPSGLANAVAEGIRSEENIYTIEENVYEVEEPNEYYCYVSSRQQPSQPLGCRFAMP
UniProt P46379: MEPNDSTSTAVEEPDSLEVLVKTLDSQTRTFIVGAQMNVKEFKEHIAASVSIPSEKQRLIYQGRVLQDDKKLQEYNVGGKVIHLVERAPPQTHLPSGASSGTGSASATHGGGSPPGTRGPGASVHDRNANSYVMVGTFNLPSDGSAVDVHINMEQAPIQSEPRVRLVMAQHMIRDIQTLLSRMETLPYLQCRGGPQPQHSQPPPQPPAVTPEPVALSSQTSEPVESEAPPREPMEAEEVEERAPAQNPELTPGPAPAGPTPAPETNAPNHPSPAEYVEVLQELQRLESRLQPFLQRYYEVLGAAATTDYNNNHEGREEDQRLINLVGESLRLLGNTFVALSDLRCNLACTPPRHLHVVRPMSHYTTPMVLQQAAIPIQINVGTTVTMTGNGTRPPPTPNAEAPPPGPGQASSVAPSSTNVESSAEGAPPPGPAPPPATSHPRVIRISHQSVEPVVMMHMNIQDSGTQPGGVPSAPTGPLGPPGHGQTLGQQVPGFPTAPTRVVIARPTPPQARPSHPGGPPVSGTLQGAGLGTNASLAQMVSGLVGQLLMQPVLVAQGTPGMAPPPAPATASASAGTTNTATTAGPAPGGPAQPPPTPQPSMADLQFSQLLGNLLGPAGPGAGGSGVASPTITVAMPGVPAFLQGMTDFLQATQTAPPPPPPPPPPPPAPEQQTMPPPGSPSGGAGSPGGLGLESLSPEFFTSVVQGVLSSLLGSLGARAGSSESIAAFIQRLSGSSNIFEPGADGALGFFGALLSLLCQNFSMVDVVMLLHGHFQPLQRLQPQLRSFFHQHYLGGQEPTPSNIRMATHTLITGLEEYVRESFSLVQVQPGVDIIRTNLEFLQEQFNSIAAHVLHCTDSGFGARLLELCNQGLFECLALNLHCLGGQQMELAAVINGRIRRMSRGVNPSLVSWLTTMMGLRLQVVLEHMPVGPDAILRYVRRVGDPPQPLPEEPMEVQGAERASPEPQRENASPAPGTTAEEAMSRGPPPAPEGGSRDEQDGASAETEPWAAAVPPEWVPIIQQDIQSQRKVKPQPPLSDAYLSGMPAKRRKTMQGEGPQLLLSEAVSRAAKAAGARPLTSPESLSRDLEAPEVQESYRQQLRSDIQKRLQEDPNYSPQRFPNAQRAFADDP
UniProt P33241: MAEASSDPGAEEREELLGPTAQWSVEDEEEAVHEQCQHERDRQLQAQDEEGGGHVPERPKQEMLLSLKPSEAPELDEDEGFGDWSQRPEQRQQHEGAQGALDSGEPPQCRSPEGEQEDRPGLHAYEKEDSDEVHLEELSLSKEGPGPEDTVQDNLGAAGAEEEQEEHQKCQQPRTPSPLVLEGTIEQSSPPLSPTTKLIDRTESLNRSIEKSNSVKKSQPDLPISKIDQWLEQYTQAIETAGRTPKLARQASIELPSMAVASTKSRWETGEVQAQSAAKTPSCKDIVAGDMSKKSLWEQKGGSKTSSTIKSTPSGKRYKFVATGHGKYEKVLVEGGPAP

Biological target: T-cell Immunoglobulin and Mucin Domain 3 (TIM-3) (human (endogenous in monocyte-derived macrophages)) (UniProt Q8TDQ0)
Experiment: co-IP; TIM-3 precipitated from whole MDM lysates (Pierce IP lysis buffer, protease inhibitors) with 1 ug monoclonal anti-TIM-3 antibody and Dynabeads Protein G; SDS-PAGE and western blot for BAT-3 or LSP-1; for LSP-1 also cells treated with GAL-9 for 10 min before lysis

binding | Substance
binds | HLA-B-associated transcript 3 (BAT3) (from UniProt P46379 1-1132)
binds | lymphocyte-specific protein 1 (LSP-1) (from UniProt P33241 1-339)
